# Experimental data published in patent US20090156457A1, “METHODS AND MEANS FOR SCREENING FOR RHOMBOID ACTIVITY” (MEDICAL RESEARCH COUNCIL, priority 2004, published 2009).
# At least one structure is not confirmed: it was looked up by name or label, or the drawing left a doubt.
# Legend:
# Format in all cases: cell-based
# [1] = molecular target: T1, human RHBDL2 (Homo sapiens, UniProt Q9NX52); test: Rhomboid capture assay (SEAP reporter after capture with immobilised RGS6His antibody); details: Cos-7 cells re-seeded in 96-well plates, 24 h, in the presence of Batimastat (129:1 without)
# T1 construct: expressed in transfected cells; host or cells: COS-7
# T1 sequence (Q9NX52 1-303): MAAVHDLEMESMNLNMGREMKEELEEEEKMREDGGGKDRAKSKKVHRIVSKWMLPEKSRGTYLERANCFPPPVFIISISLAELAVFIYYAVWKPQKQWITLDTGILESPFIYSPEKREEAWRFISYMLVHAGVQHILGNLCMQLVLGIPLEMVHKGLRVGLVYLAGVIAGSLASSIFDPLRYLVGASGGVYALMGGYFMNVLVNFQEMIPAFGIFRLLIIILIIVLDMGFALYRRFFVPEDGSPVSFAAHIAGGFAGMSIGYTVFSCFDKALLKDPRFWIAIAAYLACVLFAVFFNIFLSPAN
# [2] = molecular target: T2, rhomboid RHBDL2 (Homo sapiens, UniProt Q9NX52); test: Western blot for MRGS/6His tagged polypeptides in transfection supernatants; details: Cos-7 cells, substrate with RHBDL2, supernatants 48 h post transfection, batimastat in the transfection cultures
# T2 construct: expressed in transfected cells; host or cells: COS-7
# T2 sequence (Q9NX52 1-303): T1 sequence (Q9NX52 1-303)
# [3] = tested on: endogenous metalloproteases; test: Assay for total SEAP reporter activity in Cos-7 transfection supernatants; details: Cos-7 cells, SEAP/6H/Spi/TGFα substrate alone or with RHBDL2, in the presence of Batimastat (20 μM, 24 h)
smiles,measurement,setting,value
"CNC(=O)[C@H](Cc1ccccc1)NC(=O)[C@H](CC(C)C)[C@H](CSc1cccs1)C(=O)NO [Batimastat, batimastat]",signal to background ratio (substrate with rhomboid:substrate alone),[1],133:1
same,size and quantity of the tagged product (approximately 70 kDa),[2],not apparently affected
same,total SEAP activity in flask transfection supernatants,[3],reduced
